Results: patent US10633383B2, “Compounds for the treatment, alleviation or prevention of disorders associated with Tau aggregates” (AC Immune SA, priority 2018, dated 2020)

The chains behind the UniProt entries cited, without tags or fusion partners. Residues count along the entry.
UniProt P10636, 1-441 isoform 8: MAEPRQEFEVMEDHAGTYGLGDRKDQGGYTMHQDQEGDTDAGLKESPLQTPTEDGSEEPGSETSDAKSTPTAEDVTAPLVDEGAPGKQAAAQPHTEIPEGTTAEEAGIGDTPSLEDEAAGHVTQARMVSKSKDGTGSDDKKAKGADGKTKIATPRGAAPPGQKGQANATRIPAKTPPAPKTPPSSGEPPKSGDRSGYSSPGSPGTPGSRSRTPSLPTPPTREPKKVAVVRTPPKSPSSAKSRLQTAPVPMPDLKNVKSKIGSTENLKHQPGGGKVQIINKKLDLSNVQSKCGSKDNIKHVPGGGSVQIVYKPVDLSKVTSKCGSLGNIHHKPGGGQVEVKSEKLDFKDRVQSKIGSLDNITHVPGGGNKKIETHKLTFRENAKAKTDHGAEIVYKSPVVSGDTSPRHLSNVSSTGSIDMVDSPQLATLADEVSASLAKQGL
UniProt P10636, 561-689 limits assumed: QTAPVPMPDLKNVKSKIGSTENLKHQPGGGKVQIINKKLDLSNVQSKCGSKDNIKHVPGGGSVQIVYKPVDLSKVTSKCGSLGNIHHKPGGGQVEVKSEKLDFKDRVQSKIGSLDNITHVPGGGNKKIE

What was measured:
[1] = molecular target: recombinant full-length (fl)Tau (human Tau 2N4R) aggregates (Homo sapiens, UniProt P10636); assay: Full-length Tau (flTau) disaggregation assay by Thioflavin T (ThT); conditions: read-out: flTau disaggregation EC50; 2 μM flTau aggregates, 30 minutes at RT, ThT fluorescence
Protocol: Full-Length Tau (flTau) Disaggregation Assay by Thioflavin T (ThT)
The longest isoform of human Tau (2N4R; 441 amino acids) was expressed in bacteria and purified. For the Tau disaggregation assay by ThT, 35 μM of recombinant full-length (fl)Tau in PBS were aggregated for 24 hours at 37° C. in presence of 50 μM of heparin (Sigma-Aldrich) and 10 mM of DTT (Sigma-Aldrich) under shaking at 750 RPM. Compounds were dissolved in anhydrous dimethyl sulfoxide (DMSO, Sigma-Aldrich) to reach a concentration of 10 mM. flTau aggregates and serial dilutions of compounds were mixed together in PBS (volume 50 μL) to a final concentration of 2 μM of flTau aggregates and from 160 to 0.04 μM of compounds. The mixture was incubated for 30 minutes at room temperature (RT), then 40 μL of this mixture were transferred into a black 384-well plate assay (Perkin-Elmer) and mixed with 10 μL of 100 μM ThT in 250 mM glycine (both from Sigma-Aldrich) in PBS. Fluorescence (relative fluorescence units; RFU) was measured in monoplicate or duplicate on a Tecan reader (excitation: 440 nm; emission: 485 nm). Percentage of flTau disaggregation was then calculated and the half maximal effective concentration (EC50) was determined using GraphPad Prism version 5 (GraphPad Software) assuming a one-binding site fitting model.

[2] = molecular target: Tau K18 fragment (amino acids 244 to 372 of human Tau441) aggregates (Homo sapiens, UniProt P10636); assay: Tau K18 disaggregation assay by ThT; assay type: biochemical; conditions: read-out: Tau K18 disaggregation EC50; 2 μM K18 aggregates, 30 minutes at RT, ThT fluorescence
[3] = test system: human neuroblastoma cell line overexpressing the full-length form of human Tau carrying the P301L mutation; assay: Reduction of intracellular Tau aggregation (AlphaLISA); conditions: compound at 5 μM, 24 h; aggregated Tau normalized to total Tau, relative to DMSO-treated cells
Protocol: Reduction of Intracellular Tau Aggregation
A human neuroblastoma cell line overexpressing the full-length form of human Tau carrying the P301L mutation was cultured in complete medium [DMEM-F12 4.5 g/L Glutamax (Invitrogen), 15% FBS (Biochrom), 1% Peni/Strep (Invitrogen) supplemented with 2.5 μg/ml of G418 (Sigma-Aldrich) selection antibiotic]. The day before the experiment 5×10^5 cells/well were plated in a 6 well plate in 3 mL of complete medium. The next day, cells were incubated with DMSO or a compound of the present invention at a 5 μM for additional 24 h at 37° C. […] Phosphorylated, aggregated, and total Tau were quantified by AlphaLisa using the following antibody pairs: • HT7-Acceptor beads+biotin (BT)-Tau13-Donor beads: Total Tau • HT7-Acceptor beads+biotin (BT)-HT7-Donor beads: Aggregated human Tau […]
After incubation of this mixture at room temperature for 1 h, 25 μL of Streptavidin Donor beads (Perkin Elmer) at 25 μg/mL were added in the dark. Plates were analyzed after 30 min incubation using the EnSpire Alpha instrument and EnSpire Workstation version 3.00. Data for aggregated Tau were normalized to total Tau and then expressed as percentage of the DMSO-treated cells.

SMILES: Cn1c2c(c3cc(F)ccc31)CN(c1ccc3nc(N4CCOCC4)oc3c1)CC2 [Example 15]
- EC50 [1]: < 10 µM
- EC50 [2]: < 10 µM
- % Reduction of intracellular Tau aggregation [3]: ++ (++ % 50 < x < 25)

The match of structure and compound is tentative.
